Data published in the supplement of paper PMC3334620.
In all, about 33,000 sequences were measured (“E-score (-0.5 to 0.5)”: median about -0.015, highest 2% from about 0.3 on). The list shows a part of the results.

Biological target: T1, Abf1 (UniProt P14164)
T1 sequence: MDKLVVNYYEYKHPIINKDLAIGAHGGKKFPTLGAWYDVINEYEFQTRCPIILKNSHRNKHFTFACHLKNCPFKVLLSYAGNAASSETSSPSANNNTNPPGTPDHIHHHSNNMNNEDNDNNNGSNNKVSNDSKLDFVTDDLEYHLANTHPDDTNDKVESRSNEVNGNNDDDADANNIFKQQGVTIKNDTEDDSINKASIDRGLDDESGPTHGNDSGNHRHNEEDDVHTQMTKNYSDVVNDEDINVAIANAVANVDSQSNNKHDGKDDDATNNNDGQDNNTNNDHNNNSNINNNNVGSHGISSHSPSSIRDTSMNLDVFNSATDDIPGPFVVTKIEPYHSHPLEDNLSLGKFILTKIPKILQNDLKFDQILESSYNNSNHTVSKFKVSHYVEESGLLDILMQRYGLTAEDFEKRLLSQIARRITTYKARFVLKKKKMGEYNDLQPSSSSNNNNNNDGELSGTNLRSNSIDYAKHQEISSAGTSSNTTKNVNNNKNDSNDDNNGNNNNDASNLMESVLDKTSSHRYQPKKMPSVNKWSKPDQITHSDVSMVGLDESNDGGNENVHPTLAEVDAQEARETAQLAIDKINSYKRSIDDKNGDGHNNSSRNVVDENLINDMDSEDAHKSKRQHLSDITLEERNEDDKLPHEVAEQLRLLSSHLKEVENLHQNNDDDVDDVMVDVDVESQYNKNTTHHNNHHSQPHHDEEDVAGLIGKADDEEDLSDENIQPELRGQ
Test: PBM E-score (8-mer binding enrichment) (E-score (-0.5 to 0.5)); higher = stronger / more preferred TF binding
Conditions: protein concentration: 200 nM; construct: GST-full length
Method in brief: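 Yeast transcription factors, full-length or as DNA-binding domains, were expressed with a GST tag using PURExpress in vitro transcription/translation. At about 100-200 nM they were applied to universal all-10-mer Agilent arrays, double-stranded by primer extension on fresh or once-stripped slides. Fluorescent anti-GST detected bound protein, and masliner normalised the scans. E-scores for ungapped eight-base words, pooled with reverse complements, came from the Universal PBM Analysis Suite.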

Sequence	PBM E-score
ATTCGCCC	-0.13
ACCCTGCG	-0.0365
AAGTGCCT	-0.162
ATGAGCTG	-0.0505
AGCACTAC	-0.0483
ATGTGTAC	-0.111
CAAAACCG	0.0657
GATCGAGA	-0.0495
CGACACAC	0.237
AAGCGAGG	-0.0709
ATGCAGCC	0.0304
AGACAGAG	-0.166
CGGAATGA	0.0306
ATTGCGCA	-0.109
ATTGGTTC	0.09
ATACGGTC	0.26
CGAAGCTC	-0.00032
TACCACGA	0.216
GGACTCGA	-0.291
ATTCTGTG	0.00625
GCCATTCC	-0.161
ACACCACC	-0.17

Shown bar-delimited: part of the list above.
Sequence | PBM E-score
GGACTCGA | -0.291
ATTCTGTG | 0.00625

(listing goes on)

Sequence	PBM E-score
GGCTTCTA	-0.0456
GAATGCTA	0.119
CCTTCATC	-0.0644
GGTATAAA	-0.0171
TAACATAA	0.134
GACCGCTA	-0.0269
CAGTCTAC	-0.114
ACTACTTC	0.0426
CGGCAACC	0.0833
AGGGAAAT	-0.0476
AGGCGCAG	-0.235
TGCTCTAA	0.0391
CGCTATGC	-0.0113
GATATATA	0.289
AGAAGGAG	-0.354
ATGGCCGG	-0.258
CCCGCTCA	-0.161
AACGCCAA	-3e-05
GAGTGATA	0.424
CAATTGGG	-0.135
AGCAATCG	0.0931
GACTGGCA	-0.194

Sequence	PBM E-score
AGAACCAA	-0.102
ACCCAATC	0.032
CTGGGCGC	-0.098
AGGATTGA	-0.0149
CTAACCGA	-0.151
CTCTCTGA	-0.149
CATTGTTA	0.147
ATCTTGTC	0.141
CGCATGGA	-0.029
CATTATGG	-0.0428
CCTTCGCG	-0.116
GGAACCCA	-0.0699
CATTCCAG	-0.0808
ATGTGGCC	0.0364
AGTGTGGC	0.0153
ATGCTCGA	0.0106
ATGATAAT	0.377
CCGTCCCA	0.198
CACAAGTC	-0.1
GGCCTGGA	-0.208
ACCGGTAG	-0.138
AAACATGA	0.168

Quoted at random: 2 entries already listed
Sequence	PBM E-score
CCCGCTCA	-0.161
AGAACCAA	-0.102

Continued:

Sequence	PBM E-score
TCTCTTAA	0.124
CTTCGCAA	0.028
GGGCCATA	-0.105
TATAGCGA	-0.0367
ACGGATAC	0.189
CTTTGACA	-0.103
CACCAGCC	-0.128
AGTGTCCC	-0.0369
GCTCATAA	-0.0889
ATCAGGTC	-0.00063
AATAATCG	0.0481
AAAGTGGC	-0.118
GATGGGTA	0.0596
AGTTATAG	0.01
CCCAGGCC	-0.216
AGCTCGAC	-0.143
ATTACCTA	0.11
CGGTTGTC	0.0712
GCGACTAA	0.0452
ATATCTAC	0.172
